# PubChem BioAssay AID1259425 – University of Nebraska Medical Center, 2018
# Assay: 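Compare each knockdown with KSR1 silencing using changes in marker transcripts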 (primary screen)
# Cells: HCT116 human colon cancer cells
# Knock-down reagent: siRNA pool against human genes, 50 nM siRNA
# Read-out: 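mRNA of six signature genes measured together by branched-DNA assay after 50 nM siRNA pool, blank removed, divided by geometric mean of two housekeeping genes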
# Reading the numbers: BNIP3L mRNA: higher = more BNIP3L transcript after knockdown; NDRG1 mRNA: higher = more NDRG1 transcript after knockdown; BNIP3 mRNA: higher = more BNIP3 transcript after knockdown; ALDOC mRNA: higher = more ALDOC transcript after knockdown; ACSL5 mRNA: higher = more ACSL5 transcript after knockdown
# Shown is a random part of about 14,000 reagents. A reagent listed more than once was tested more than once; the source does not tell the runs apart. Not given: the time to read-out.
target,"BNIP3L mRNA, set 1","NDRG1 mRNA, set 1","BNIP3 mRNA, set 1","ALDOC mRNA, set 1","ACSL5 mRNA, set 1"
NAAA,0.107,0.114,0.266,0.0243,0.118
INPP5F,0.132,0.089,0.333,0.0228,0.157
KAT2B,0.0866,0.34,0.256,0.0162,0.157
NXF5,0.119,0.179,0.39,0.0403,0.114
CRLF2,0.092,0.167,0.247,0.0252,0.126
XCL1,0.128,0.333,0.447,0.0531,0.302
MAN2A1,0.138,0.317,0.32,0.0223,0.152
NFYC,0.122,0.247,0.321,0.00392,0.241
HESX1,0.093,0.203,0.305,0.00929,0.437
TNNT3,0.0329,0.11,0.212,0.0228,0.211
PPP3R2,0.0541,0.369,0.282,0.0161,0.223
NUDT12,0.102,0.204,0.31,0.124,0.391
NPRL3,0.0674,0.477,0.314,0.0499,0.114
MS4A6A,0.077,0.177,0.3,0.02,0.183
PLAG1,0.0985,0.21,0.297,0.0402,0.251
LTV1,0.0784,0.185,0.274,0.00868,0.103
ARMCX6,0.0813,0.111,0.287,0.0227,0.189
RNF38,0.0758,0.0631,0.247,0.0219,0.166
TP53TG3,0.0866,0.128,0.242,0.0444,0.118
TSPYL4,0.106,0.137,0.231,0.0154,0.176
COMMD4,0.0927,0.309,0.232,0.0137,0.146
PEAK1,0.196,0.299,0.442,0.0331,0.373
KIFC3,0.0839,0.115,0.312,-0.00339,0.109
SCML2,0.213,0.17,0.294,0.0436,0.296
ANKRD27,0.395,0.162,0.328,0.11,0.227
ERMN,0.233,0.172,0.3,0.0708,0.207
AMMECR1,0.196,0.0806,0.172,0.0348,0.0641
ADAMTSL1,0.124,0.0832,0.307,0.0127,0.119
POLR3E,0.226,0.945,0.211,0.0273,0.194
CHST15,0.148,0.183,0.25,0.0229,0.142
ZFHX4,0.294,0.42,0.409,0.0287,0.529

An excerpt from above, limited to “ALDOC mRNA, set 1”.
MAN2A1	0.0223
NFYC	0.00392
HESX1	0.00929

Next reagents:
target,"BNIP3L mRNA, set 1","NDRG1 mRNA, set 1","BNIP3 mRNA, set 1","ALDOC mRNA, set 1","ACSL5 mRNA, set 1"
SPRR2A,0.116,0.108,0.335,0.0349,0.111
CLRN1,0.104,0.396,0.3,0.0227,0.115
GSTK1,0.113,0.207,0.332,0.0187,0.21
KCNJ8,0.0765,0.0702,0.272,0.00739,0.119
MYH10,0.0933,0.206,0.192,0.0192,0.191
PRPF4,0.0802,0.15,0.224,0.0167,0.197
FGF11,0.156,0.398,0.25,0.0607,0.232
CASP10,0.134,0.658,0.297,0.0368,0.16
GRK6,0.146,0.29,0.25,0.0206,0.223
GRK6,0.132,0.221,0.284,0.00497,0.526
RABL6,0.127,0.256,0.31,0.017,0.164
HCAR2,0.124,0.326,0.188,0.0338,0.172
GNRHR,0.231,0.28,0.499,0.064,0.236
MPZL1,0.0811,0.0717,0.303,0.0135,0.271
CSF3,0.135,0.279,0.24,0.0262,0.0876
OPTN,0.106,0.219,0.267,0.0211,0.174
ROBO4,0.0922,0.138,0.289,0.0144,0.13
SLC39A8,0.0838,0.0947,0.348,0.0164,0.146
GTF3C4,0.0419,0.175,0.215,0.0125,0.149
